Measurements taken from PubChem BioAssay AID2685 (National Center for Advancing Translational Sciences (NCATS), 2010).
The other results are listed elsewhere or left out. These are further read-outs of the screen, such as a control signal, another cell line or another target. No call is given for them. Compounds called inactive in the main read-out are mostly missing here. Potencies come from curve fits of mixed quality, noted in brackets.

Assay: qHTS Assay for Lipid Storage Modulators in Drosophila S3 Cells;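 for cell number change: cells counted by Cell Tracker Red CMTPX staining in the red channel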
Settings: BODIPY lipid droplet fluorescence, 18-24 h; for cell number change: measured here: cell count max response, cells fed with added oleic acid
Outline: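 Drosophila S3 cells got compounds at several concentrations plus oleic acid (400 uM solution). Laser-scanning cytometry with 488 nm excitation read lipid droplets at 500-530 nm and cells at 575-640 nm. Percent activity was relative to 20 uM Triacsin C.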

[1] = measured here: lipid fluorescence (Fed channel) AC50, cells fed with added oleic acid
[2] = measured here: cell number channel AC50, cells fed with added oleic acid

SMILES	cell number change	AC50 [1]	AC50 [2]
CN1CCc2c(C#N)c(Cl)nc(Cl)c2C1	-6.01%	20.6 µM [falling, single point]	–
O=c1c(C=NCCN2CCNCC2)c(O)n(C2CCCCC2)c(=O)n1C1CCCCC1	–	6.51 µM [falling, single point]	–
COC(=O)C1=C(c2ccc(OC)c(OC)c2)C[C@@H]2CC[C@H]1N2C(=O)NCCOc1ccccc1	24.8%	0.82 µM [rising, single point]	–
Cc1nc2cc(-c3ccccc3)nn2c(C)c1CCC(=O)N1CCC2(CC1)OCCO2	-0.312%	–	–
COc1ccc(OCC(=O)N2CCN(C3CCC(c4ccccc4)CC3)CC2)cc1 (stereo not given)	33.9%	–	9.2 µM [rising, single point]
O=C1CN=C(c2ccc(F)cc2)c2oc3ccccc3c2N1	–	6.51 µM [falling, single point]	1.84 µM [falling, partial curve, poor fit]
O=C(c1cccnc1)c1cc2ccccc2[nH]1	1.76%	8.2 µM [rising, partial curve]	–
CC(C)N1CCN(Cc2ccc3c(c2)OCCO3)CC1CCO (stereo not given)	1.2%	6.51 µM [falling, partial curve]	–
Cc1ccc(CC2C(=O)N(C)C(=O)N(C)C2=O)s1	–	6.51 µM [falling, single point]	6.51 µM [falling, single point]
COC(=O)C1=C(c2ccc(F)cc2F)C[C@@H]2CC[C@H]1N2C(=O)NCc1ccco1	2.53%	6.51 µM [rising, single point]	–
CCOc1cc2c(cc1OCC)-n1cccc1C(c1ccc(F)cc1)NC2 (stereo not given)	-34.1%	29.1 µM [falling, single point]	29.1 µM [falling, single point]
CCC(=NCCN1CCOCC1)c1c(O)n(-c2ccccc2C)c(=O)[nH]c1=O	7.88%	6.51 µM [rising, partial curve]	–
COc1ccccc1NC(=O)c1cn(CCC#N)nc1-c1ccc(F)cc1	16.8%	–	–
O=C(Cc1ccccc1)Oc1ccc(N2C(=O)CCC2=O)cc1	-18.1%	1.16 µM [falling, partial curve]	–
CP(=O)(O)CN1CCCCC1	-51.7%	–	29.1 µM [falling, single point]
CCCCCCOc1ccc(CN2CCN(C)CC2)cc1	-118%	14.6 µM [falling, partial curve]	16.4 µM [falling, partial curve]
CCC(C)C12CN3CCN(CC(C)(C3)C1O)C2 (stereo not given)	51.9%	–	3.66 µM [falling, partial curve, poor fit]
O=C(COC(=O)Cc1ccccc1)Nc1ccc(F)cc1	20.7%	9.2 µM [falling, single point]	3.66 µM [rising, single point]
CC(C)(C)NC(=O)C1CC2CCCCC2CN1 (stereo not given)	11.7%	29.1 µM [falling, single point]	–
O=c1[nH]c(=O)n(CCC2=CCCCC2)c(O)c1C=NCCN1CCNCC1	-21.5%	18.4 µM [falling, partial curve, poor fit]	–

SMILES	cell number change	AC50 [1]	AC50 [2]
C=CCC1C(=O)NC(=S)NC1=O	-10.4%	0.0291 µM [falling, full curve, poor fit]	–
CCOc1ccc(-n2c(O)c(C=NCCN(CC)CC)c(=O)[nH]c2=O)cc1	-190%	16.4 µM [falling, partial curve]	–
COC(=O)C1=C(c2ccc(OC(F)(F)F)cc2)C[C@@H]2CC[C@H]1N2C(=O)NCCOc1ccc(OC)cc1	-21.3%	4.61 µM [rising, single point]	–
C=CCn1c(O)c(C(CC)=NCCC2=CCCCC2)c(=O)[nH]c1=O	16.2%	6.51 µM [falling, single point]	–
CCCCCn1c(N)c(C(=O)NCCN2CCOCC2)c2nc3ccccc3nc21	-85.4%	29.1 µM [falling, single point]	16.4 µM [falling, single point]
CCOP(=O)(OCC)C(NC(=O)c1cccc(C)c1)C(Cl)(Cl)Cl (stereo not given)	-52.8%	29.1 µM [falling, single point]	18.4 µM [falling, single point]
Cc1ccc(-n2c(O)c(C=Nc3ccccc3N)c(=O)[nH]c2=O)cc1C	-3.52%	29.1 µM [rising, single point]	–
CN(C)C(=O)Oc1cccc2c(OC(=O)N(C)C)cccc12	4.02%	–	–
CCC1(C)CN(S(=O)(=O)OCC(Cl)(Cl)Cl)C(=O)N1 (stereo not given)	29%	29.1 µM [rising, single point]	–
CCn1c(O)c(C(c2ccccn2)c2c(O)n(CC)c(=S)[nH]c2=O)c(=O)[nH]c1=S	44.8%	–	29.1 µM [rising, single point]
O=C(O)c1ccccc1-c1ccc(C=C2C(=O)N(c3ccccc3)C(=S)N(c3ccccc3)C2=O)o1	9.49%	3.66 µM [rising, partial curve]	–
O=C(N/N=C/c1c(O)n(-c2ccccc2)c(=O)[nH]c1=O)c1ccncc1	–	29.1 µM [falling, single point]	–
CC(=NC1CCN(Cc2ccccc2)CC1)c1c(O)n(C)c(=O)n(C)c1=O	–	0.103 µM [falling, partial curve, poor fit]	–
Cc1cc(S(=O)(=O)NC(C)C)ccc1OCC(=O)N1CCN(Cc2ccc3c(c2)OCO3)CC1	-40.9%	13 µM [falling, partial curve]	8.2 µM [falling, partial curve]
COc1cc2c(cc1C=O)OCO2	33.7%	23.1 µM [rising, single point]	16.4 µM [rising, single point]
CC1(C)C2CC=C(CN3CCC(O)CC3)C1C2 (stereo not given)	-32.3%	0.259 µM [falling, full curve]	–
C=CCNC(=S)/N=C/c1c(O)[nH]c(=O)[nH]c1=O	128%	–	–
CCC(C)N1C(=O)NC(=O)C2(Cc3c(ccc4ccccc34)N(C)C2)C1=O (stereo not given)	11.9%	–	0.0058 µM [rising, full curve, poor fit]
C=CCn1c(O)c(C(CC)=Nc2ccccc2NC(C)=O)c(=O)[nH]c1=O	-15.9%	0.461 µM [falling, partial curve]	0.146 µM [falling, full curve]
CCOC(=O)C1CCCN(c2ccc([N+](=O)[O-])c3nonc23)C1 (stereo not given)	-59.2%	0.82 µM [falling, full curve, poor fit]	1.03 µM [falling, full curve]

SMILES	cell number change	AC50 [1]	AC50 [2]
Cc1cc(C(=O)OCC(=O)Nc2c(F)cccc2F)c(C)n1C1CC1	0.855%	16.4 µM [rising, partial curve]	–
COC(=O)C1=C(c2ccc(-c3ccccc3)c(F)c2)C[C@@H]2CC[C@H]1N2C(=O)N1CCCCC1	-34.1%	13 µM [falling, partial curve]	11.6 µM [falling, partial curve]
O=C1/C(=C/c2cc([N+](=O)[O-])ccc2Cl)N2CCC1CC2	-19.5%	–	–
COCCNC(=O)Cn1cc(C(=O)c2ccccc2F)c2ccccc21	14.1%	6.51 µM [rising, single point]	–
CCC(=O)O[C@@H]1[C@@H](OC(C)=O)[C@@]2(O)C(C[C@H](O)C2(C)C)[C@](C)(O)[C@H]2CC[C@@H]3[C@@H](O)[C@]12C[C@@]3(C)O (stereo not given in full)	-29.3%	4.61 µM [falling, full curve]	–
CN(C)CC#CCn1c2ccccc2c2ccccc21	-3.04%	20.6 µM [rising, single point]	–
COC(=O)C(O)(c1ccc(N(C)C(=O)COc2ccccc2)cc1)C(F)(F)F (stereo not given)	14.9%	32.6 µM [rising, single point]	–
COc1ccc(CCNCc2sccc2C)cc1	15.5%	–	3.66 µM [rising, partial curve]
COc1ccccc1Oc1c(C)oc2cc(OC(=O)N(C)C)ccc2c1=O	20.4%	14.6 µM [rising, single point]	–
Fc1ccccc1CCNCc1ccccc1	-35.7%	11.6 µM [falling, partial curve]	14.6 µM [falling, partial curve]
Cc1ccc(C)c(OCC(=O)N2CCN(Cc3ccc4c(c3)OCO4)CC2)c1	-10.9%	13 µM [falling, partial curve]	–
CN(C)C(=O)Oc1ccc(OC(=O)c2ccccc2)cc1	61.8%	–	18.4 µM [rising, single point]
CCc1nc(N2CCNCC2)c(C#N)c2c1CSC(C)(C)C2	1.12%	–	–
COC(=O)CCCNC(=O)CN1CC(c2ccccc2)CC1=O (stereo not given)	-18.9%	0.13 µM [falling, full curve, poor fit]	0.651 µM [falling, full curve, poor fit]
CCCC(=O)OCC[N+](C)(C)C	-17.6%	1.3 µM [falling, full curve, poor fit]	–
CCN(CC)S(=O)(=O)c1cccc(N=Nc2c(O)n(CC)c(=S)n(CC)c2=O)c1	5.15%	–	6.51 µM [rising, single point]
CCN(CC)C(=O)Cn1cc(/C=C2\C(=O)NC(=O)N(c3ccccc3F)C2=O)c2ccccc21	-19.8%	14.6 µM [falling, single point]	–
CCCCn1c(O)c(C=NCc2ccc3c(c2)OCO3)c(=O)[nH]c1=O	-34.5%	16.4 µM [falling, single point]	14.6 µM [falling, single point]

Quoted at random: 2 entries already listed.
SMILES	cell number change	AC50 [1]	AC50 [2]
Cc1ccc(C)c(OCC(=O)N2CCN(Cc3ccc4c(c3)OCO4)CC2)c1	-10.9%	13 µM [falling, partial curve]	–
CN(C)C(=O)Oc1ccc(OC(=O)c2ccccc2)cc1	61.8%	–	18.4 µM [rising, single point]
